Data from publication PMC8152475 (Biomedicines, 2021).

Amino acid sequences for entries named in this document (tags omitted). Residues count along the entry.
UniProt P9WIN9, residues 24-228: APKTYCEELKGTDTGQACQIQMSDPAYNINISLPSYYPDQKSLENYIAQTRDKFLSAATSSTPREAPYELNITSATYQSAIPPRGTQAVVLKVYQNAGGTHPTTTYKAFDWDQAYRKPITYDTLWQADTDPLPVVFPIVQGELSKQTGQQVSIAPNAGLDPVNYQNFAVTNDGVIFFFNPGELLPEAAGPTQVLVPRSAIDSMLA
UniProt Q9Y4K3: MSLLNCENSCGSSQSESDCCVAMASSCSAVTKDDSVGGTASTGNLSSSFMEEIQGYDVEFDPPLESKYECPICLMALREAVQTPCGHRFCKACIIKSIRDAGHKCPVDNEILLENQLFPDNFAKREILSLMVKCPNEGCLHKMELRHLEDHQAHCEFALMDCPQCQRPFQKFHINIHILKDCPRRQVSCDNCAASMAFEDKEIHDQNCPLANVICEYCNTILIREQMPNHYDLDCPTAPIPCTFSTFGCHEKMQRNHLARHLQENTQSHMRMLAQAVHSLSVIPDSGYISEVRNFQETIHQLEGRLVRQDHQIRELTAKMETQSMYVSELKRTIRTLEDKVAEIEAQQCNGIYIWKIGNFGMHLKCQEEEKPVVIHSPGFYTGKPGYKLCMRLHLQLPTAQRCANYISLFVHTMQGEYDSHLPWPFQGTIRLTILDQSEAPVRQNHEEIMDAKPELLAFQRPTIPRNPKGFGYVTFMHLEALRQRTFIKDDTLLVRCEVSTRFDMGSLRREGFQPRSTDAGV
UniProt Q9UHD2: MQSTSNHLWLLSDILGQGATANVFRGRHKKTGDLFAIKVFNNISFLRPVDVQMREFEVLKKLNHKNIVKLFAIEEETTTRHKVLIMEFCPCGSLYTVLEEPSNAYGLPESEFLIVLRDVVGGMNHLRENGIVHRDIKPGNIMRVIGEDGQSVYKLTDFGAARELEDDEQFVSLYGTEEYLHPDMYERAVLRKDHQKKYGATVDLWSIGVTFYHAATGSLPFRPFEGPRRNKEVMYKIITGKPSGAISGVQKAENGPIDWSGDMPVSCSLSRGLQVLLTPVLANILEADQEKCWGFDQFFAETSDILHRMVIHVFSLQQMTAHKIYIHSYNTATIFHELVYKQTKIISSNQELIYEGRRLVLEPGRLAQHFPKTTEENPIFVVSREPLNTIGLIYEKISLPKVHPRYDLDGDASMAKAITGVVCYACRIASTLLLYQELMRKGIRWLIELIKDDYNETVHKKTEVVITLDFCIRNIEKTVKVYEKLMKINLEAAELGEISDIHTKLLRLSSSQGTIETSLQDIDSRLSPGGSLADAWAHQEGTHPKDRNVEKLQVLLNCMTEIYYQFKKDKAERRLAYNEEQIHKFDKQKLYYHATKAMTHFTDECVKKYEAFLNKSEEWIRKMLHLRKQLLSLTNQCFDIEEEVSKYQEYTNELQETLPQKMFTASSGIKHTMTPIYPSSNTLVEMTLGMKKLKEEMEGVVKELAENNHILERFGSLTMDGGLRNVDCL
UniProt P31749: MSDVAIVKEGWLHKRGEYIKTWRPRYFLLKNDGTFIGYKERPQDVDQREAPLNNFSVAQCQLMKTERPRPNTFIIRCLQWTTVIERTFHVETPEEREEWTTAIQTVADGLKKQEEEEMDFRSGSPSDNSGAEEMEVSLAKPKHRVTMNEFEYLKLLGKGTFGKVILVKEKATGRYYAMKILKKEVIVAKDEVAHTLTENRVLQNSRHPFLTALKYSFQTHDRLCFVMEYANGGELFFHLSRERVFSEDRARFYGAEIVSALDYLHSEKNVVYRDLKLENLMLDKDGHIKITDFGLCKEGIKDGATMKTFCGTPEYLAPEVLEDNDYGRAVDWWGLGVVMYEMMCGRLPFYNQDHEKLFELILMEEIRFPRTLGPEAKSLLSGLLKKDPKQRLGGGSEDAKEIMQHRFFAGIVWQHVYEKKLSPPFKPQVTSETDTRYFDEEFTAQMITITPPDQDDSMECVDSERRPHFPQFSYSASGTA
UniProt P14598: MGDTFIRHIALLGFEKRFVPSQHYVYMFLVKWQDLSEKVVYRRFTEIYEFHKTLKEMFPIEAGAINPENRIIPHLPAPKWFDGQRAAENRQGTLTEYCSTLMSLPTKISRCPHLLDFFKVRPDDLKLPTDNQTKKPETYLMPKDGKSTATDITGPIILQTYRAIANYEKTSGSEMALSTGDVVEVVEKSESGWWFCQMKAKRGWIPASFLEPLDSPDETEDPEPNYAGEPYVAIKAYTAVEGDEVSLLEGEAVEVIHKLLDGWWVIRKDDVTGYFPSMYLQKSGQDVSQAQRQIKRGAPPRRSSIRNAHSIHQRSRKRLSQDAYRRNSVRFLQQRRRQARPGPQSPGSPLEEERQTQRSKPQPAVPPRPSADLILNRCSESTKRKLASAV
UniProt Q13546: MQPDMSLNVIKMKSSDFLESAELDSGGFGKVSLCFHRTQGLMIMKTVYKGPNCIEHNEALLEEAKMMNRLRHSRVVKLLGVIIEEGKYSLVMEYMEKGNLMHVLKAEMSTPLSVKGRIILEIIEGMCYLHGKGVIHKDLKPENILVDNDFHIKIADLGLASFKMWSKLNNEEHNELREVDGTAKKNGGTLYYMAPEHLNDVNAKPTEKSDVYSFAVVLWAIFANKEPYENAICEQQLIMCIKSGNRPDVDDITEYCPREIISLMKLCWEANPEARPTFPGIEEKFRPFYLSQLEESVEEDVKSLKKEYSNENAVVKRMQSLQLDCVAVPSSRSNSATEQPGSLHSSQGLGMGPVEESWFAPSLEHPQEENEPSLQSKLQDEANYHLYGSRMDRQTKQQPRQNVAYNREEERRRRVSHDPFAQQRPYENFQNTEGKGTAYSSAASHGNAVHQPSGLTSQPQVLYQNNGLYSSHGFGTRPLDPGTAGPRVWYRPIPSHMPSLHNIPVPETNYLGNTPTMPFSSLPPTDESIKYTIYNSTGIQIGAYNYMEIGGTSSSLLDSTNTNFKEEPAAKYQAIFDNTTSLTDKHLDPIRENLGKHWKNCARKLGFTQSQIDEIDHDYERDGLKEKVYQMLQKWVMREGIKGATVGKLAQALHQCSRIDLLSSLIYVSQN

Tests used:
Test in all cases: affinity purification with mass spectrometry; only the target purified
[1] = target: recombinant MPT64 (rMPT64) (Mycobacterium tuberculosis H37Rv) (UniProt P9WIN9)
[2] = target: T1, recombinant MPT63 (rMPT63) (Mycobacterium tuberculosis H37Rv) (UniProt P9WIP1)
T1 sequence: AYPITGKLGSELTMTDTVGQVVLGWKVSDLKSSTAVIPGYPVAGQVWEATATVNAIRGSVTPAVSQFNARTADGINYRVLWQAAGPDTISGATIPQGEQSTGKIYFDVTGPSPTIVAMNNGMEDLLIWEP

[3] = target: recombinant MPT64 (rMPT64) (Mycobacterium tuberculosis H37Rv) (UniProt P9WIN9); remark: listed apart in the source

Molecule	binding [1]	binding [2]	binding [3]
TNF receptor associated factor 6 (TRAF6), endogenous in THP-1 (from UniProt Q9Y4K3 1-522)	binds	–	–
TANK-binding kinase (TBK1), endogenous in THP-1 (from UniProt Q9UHD2 1-729)	binds	binds	–
RAC-alpha serine/threonine-protein kinase (AKT), endogenous in THP-1 (from UniProt P31749 1-480)	–	binds	–
Neutrophil cytosol factor 1 (p47phox), endogenous in THP-1 (from UniProt P14598 1-390)	–	binds	–
protein kinase Cα (PKCα), endogenous in THP-1 (from UniProt P17252 1-672)	binds	–	–
receptor-interacting serine/threonine-protein kinase 1 (RIP1), endogenous in THP-1 (from UniProt Q13546 1-671)	–	binds	–
hexokinase 2 (HK2), endogenous in THP-1 (protein, UniProt P52789 1-917) MIASHLLAYFFTELNHDQVQKVDQYLYHMRLSDETLLEISKRFRKEMEKGLGATTHPTAAVKMLPTFVRSTPDGTEHGEFLALDLGGTNFRVLWVKVTDNGLQKVEMENQIYAIPEDIMRGSGTQLFDHIAECLANFMDKLQIKDKKLPLGFTFSFPCHQTKLDESFLVSWTKGFKSSGVEGRDVVALIRKAIQRRGDFDIDIVAVVNDTVGTMMTCGYDDHNCEIGLIVGTGSNACYMEEMRHIDMVEGDEGRMCINMEWGAFGDDGSLNDIRTEFDQEIDMGSLNPGKQLFEKMISGMYMGELVRLILVKMAKEELLFGGKLSPELLNTGRFETKDISDIEGEKDGIRKAREVLMRLGLDPTQEDCVATHRICQIVSTRSASLCAATLAAVLQRIKENKGEERLRSTIGVDGSVYKKHPHFAKRLHKTVRRLVPGCDVRFLRSEDGSGKGAAMVTAVAYRLADQHRARQKTLEHLQLSHDQLLEVKRRMKVEMERGLSKETHASAPVKMLPTYVCATPDGTEKGDFLALDLGGTNFRVLLVRVRNGKWGGVEMHNKIYAIPQEVMHGTGDELFDHIVQCIADFLEYMGMKGVSLPLGFTFSFPCQQNSLDESILLKWTKGFKASGCEGEDVVTLLKEAIHRREEFDLDVVAVVNDTVGTMMTCGFEDPHCEVGLIVGTGSNACYMEEMRNVELVEGEEGRMCVNMEWGAFGDNGCLDDFRTEFDVAVDELSLNPGKQRFEKMISGMYLGEIVRNILIDFTKRGLLFRGRISERLKTRGIFETKFLSQIESDCLALLQVRAILQHLGLESTCDDSIIVKEVCTVVARRAAQLCGAGMAAVVDRIRENRGLDALKVTVGVDGTLYKLHPHFAKVMHETVKDLAPKCDVSFLQSEDGSGKGAALITAVACRIREAGQR	–	–	binds

Where two headings read alike, the source gives them in different places. These are yes or no findings as the source states them, for the method shown. Binding seen in cells or lysates may run through a third protein. A yes stands for co-enrichment or nearness to the bait. Other partners may have been found. For some assays here: Sequences can lack the tags named with a protein.
